# Measurements from the supplement of paper PMC4604168 (melanoma cell lines).
# This is one part of the list. Repeats are few or missing, and single values can be far off.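 The apoptosis fraction was the count of cleaved-PARP antibody-stained nuclei relative to all DNA-stained nuclei, imaged in 1,536-well plates. Screening doses were set so most cells survived, and baseline and induced cleaved-PARP levels vary greatly across cell lines.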
# Experiments:
# Assay in all cases: cleaved PARP positive nuclei fraction relative to DMSO control; melanoma cells; higher = more apoptosis
# Details in all cases: library dose: low library concentration; 72 h
# 501Mel = tested on: 501Mel
# A101D = tested on: A101D
# A2058 = tested on: A2058
# C32 = tested on: C32
# CBRC008 = tested on: CBRC008 (line from a melanoma biopsy)
# CBRC014 = tested on: CBRC014 (line from a melanoma biopsy)
# CBRC016 = tested on: CBRC016 (line from a melanoma biopsy)
# CBRC017 = tested on: CBRC017 (line from a melanoma biopsy)
# COLO792 = tested on: COLO792
# COLO800 = tested on: COLO800
# COLO829 = tested on: COLO829
# G361 = tested on: G361
# IPC-298 = tested on: IPC-298
# IST-MEL1 = tested on: IST-MEL1
# LB2518-MEL = tested on: LB2518-MEL
# LOXIMVI = tested on: LOXIMVI
SMILES,cleaved PARP positive nuclei fraction (501Mel),cleaved PARP positive nuclei fraction (A101D),cleaved PARP positive nuclei fraction (A2058),cleaved PARP positive nuclei fraction (C32),cleaved PARP positive nuclei fraction (CBRC008),cleaved PARP positive nuclei fraction (CBRC014),cleaved PARP positive nuclei fraction (CBRC016),cleaved PARP positive nuclei fraction (CBRC017),cleaved PARP positive nuclei fraction (COLO792),cleaved PARP positive nuclei fraction (COLO800),cleaved PARP positive nuclei fraction (COLO829),cleaved PARP positive nuclei fraction (G361),cleaved PARP positive nuclei fraction (IPC-298),cleaved PARP positive nuclei fraction (IST-MEL1),cleaved PARP positive nuclei fraction (LB2518-MEL),cleaved PARP positive nuclei fraction (LOXIMVI)
"CNC(=O)c1cc(Oc2ccc(NC(=O)Nc3ccc(Cl)c(C(F)(F)F)c3)cc2)ccn1 [sorafenib] + O=C(O)C(=O)Nc1sc2c(c1C(=O)O)CCNC2 [TCS401] (first compound 0.4 µM, partner dose 1.66667 µM)",307%,18.1%,89.3%,81.2%,143%,77.5%,79.5%,169%,63.2%,122%,88.7%,90.3%,63.8%,435%,31.9%,166%
"CCCS(=O)(=O)Nc1ccc(F)c(C(=O)c2c[nH]c3ncc(Cl)cc23)c1F + CCN(CC)CCCCNc1ncc2cc(-c3cc(OC)cc(OC)c3)c(NC(=O)NC(C)(C)C)nc2n1 [PD173074] (first compound 0.08 µM, partner dose 0.1 µM)",46.3%,72.7%,115%,98.9%,89.5%,91.1%,27.3%,95.4%,57.7%,30.1%,132%,114%,93%,79.7%,67.3%,80.9%
"Cc1cc(Nc2cc(N3CCN(C)CC3)nc(/C=C/c3ccccc3)n2)n[nH]1 + O=C1NC(=O)/C(=C/c2ccc(-c3ccc(F)cc3O)o2)S1 [AS252424] (first compound 0.04 µM, partner dose 1 µM)",70.2%,19.7%,59.9%,354%,181%,88.4%,16.1%,98%,88%,24%,127%,144%,88.6%,123%,71.7%,146%
"CNC(=O)c1cc(Oc2ccc(NC(=O)Nc3ccc(Cl)c(C(F)(F)F)c3)cc2)ccn1 [sorafenib] + O=C(Nc1ccccc1)c1cc([N+](=O)[O-])ccc1Cl [GW9662] (first compound 0.4 µM, partner dose 2 µM)",70%,22.1%,47.4%,62.7%,159%,200%,26.6%,89.4%,60.3%,26.6%,60.4%,76%,45.3%,93.2%,192%,126%
"CS(=O)(=O)CCNCc1ccc(-c2ccc3ncnc(Nc4ccc(OCc5cccc(F)c5)c(Cl)c4)c3c2)o1 [lapatinib] + COc1ccc2c(c1)CCC1C2CCC2(C)C(NCCCCCCN3C(=O)C=CC3=O)CCC12 [U73122] (first compound 0.8 µM, partner dose 0.4 µM)",248%,21.6%,68.1%,73.4%,257%,152%,178%,180%,112%,133%,131%,69.9%,144%,160%,47%,127%
"Nc1ncn([C@H]2C[C@H](O)[C@@H](CO)O2)c(=O)n1 [decitabine] + Cn1cc(/C=C2\C(=O)Nc3cccnc32)c2ccccc21 [GW441756] (first compound 0.1 µM, partner dose 0.4 µM)",85.6%,21.3%,118%,113%,61.4%,118%,110%,92.7%,177%,71.2%,117%,113%,51.9%,234%,49.2%,100%
"Cc1cc(Nc2cc(N3CCN(C)CC3)nc(/C=C/c3ccccc3)n2)n[nH]1 + CC(C)CCN1c2nc(Nc3cc(F)c(O)c(F)c3)ncc2N(C)C(=O)C1C [BID1870] (first compound 0.04 µM, partner dose 0.2 µM)",78.4%,12.6%,57.8%,105%,247%,120%,94%,110%,92%,273%,68.5%,116%,89.7%,107%,65.5%,97.9%
"O=C(O)[C@@H]1[O][Sb](=[O])([O][Sb]2(=[O])[O][C@H]([C@H](O)CO)[C@H](O)[C@H](C(=O)O)[O]2)[O][C@H]([C@H](O)CO)[C@@H]1O (stereo partly drawn) [stibogluconate] + CCN(CC)CCCCNc1ncc2cc(-c3cc(OC)cc(OC)c3)c(NC(=O)NC(C)(C)C)nc2n1 [PD173074] (first compound 2 µM, partner dose 0.1 µM)",64.3%,19.1%,369%,101%,79.7%,85.8%,39.8%,73%,47.6%,87.9%,79.6%,141%,30.8%,111%,146%,121%
"Nc1ncn([C@H]2C[C@H](O)[C@@H](CO)O2)c(=O)n1 [decitabine] + Oc1nc(-c2ccc(C(F)(F)F)cc2)nc2c1CSCC2 [XAV939] (first compound 0.1 µM, partner dose 2 µM)",83.4%,9.57%,70.7%,79.4%,60.6%,98%,72%,143%,132%,77.8%,218%,155%,151%,90.1%,89.9%,63.7%
"CO[C@H]1C[C@@H]2CC[C@@H](C)[C@@](O)(O2)C(=O)C(=O)N2CCCC[C@H]2C(=O)O[C@H]([C@H](C)C[C@@H]2CC[C@@H](OCCO)[C@H](OC)C2)CC(=O)[C@H](C)/C=C(\C)[C@@H](O)[C@@H](OC)C(=O)[C@H](C)C[C@H](C)/C=C/C=C/C=C/1C [everolimus] + c1cc(-c2cnn3cc(-c4ccc(OCCN5CCCCC5)cc4)cnc23)ccn1 [Dorsomorphin] (first compound 0.02 µM, partner dose 0.4 µM)",697%,49.7%,259%,86.5%,47.9%,92.1%,53.8%,74.6%,31%,116%,93.7%,351%,114%,44%,81.6%,91.7%
"CC(C)C[C@H](NC(=O)[C@H](Cc1ccccc1)NC(=O)c1cnccn1)B(O)O [Bortezomib] + COc1cc(N2CCC(N3CCN(C)CC3)CC2)ccc1Nc1ncc(Cl)c(Nc2ccccc2S(=O)(=O)C(C)C)n1 [NVP-TAE684] (first compound 0.001 µM, partner dose 0.08 µM)",766%,166%,206%,199%,1050%,364%,190%,185%,227%,138%,110%,273%,77.5%,698%,147%,66.5%
"C[C@@H](Oc1cc(-c2cnn(C3CCNCC3)c2)cnc1N)c1c(Cl)ccc(F)c1Cl [Crizotinib] + CCc1ccc(CCOc2ccc(CC3SC(=O)NC3=O)cc2)nc1 [pioglitazone] (first compound 0.2 µM, partner dose 2 µM)",140%,22%,204%,84.6%,76.9%,93.9%,87.1%,197%,71%,117%,43.2%,147%,182%,70.2%,72%,63.5%
"CN1CCN(c2ccc3nc(-c4c(N)c5c(F)cccc5[nH]c4=O)[nH]c3c2)CC1 [Dovitinib] + CCCCCCCCCCCC1=C(O)C(=O)C=C(O)C1=O [Embelin] (first compound 0.1 µM, partner dose 1.2 µM)",204%,16.2%,118%,86.9%,112%,110%,63.2%,161%,134%,71%,108%,113%,49.9%,87.7%,152%,151%
"CN1CCN(c2ccc3nc(-c4c(N)c5c(F)cccc5[nH]c4=O)[nH]c3c2)CC1 [Dovitinib] + Oc1nc(-c2ccc(C(F)(F)F)cc2)nc2c1CSCC2 [XAV939] (first compound 0.1 µM, partner dose 2 µM)",59.2%,31.9%,185%,166%,108%,107%,127%,95.3%,140%,113%,67.6%,133%,83.3%,151%,38.1%,127%
"CN1CCN(c2ccc3nc(-c4c(N)c5c(F)cccc5[nH]c4=O)[nH]c3c2)CC1 [Dovitinib] + CCc1ccc(CCOc2ccc(CC3SC(=O)NC3=O)cc2)nc1 [pioglitazone] (first compound 0.1 µM, partner dose 2 µM)",145%,29.7%,182%,164%,138%,90.5%,78%,269%,107%,129%,71.6%,140%,292%,223%,83%,96.5%
"O=C(O)[C@@H]1[O][Sb](=[O])([O][Sb]2(=[O])[O][C@H]([C@H](O)CO)[C@H](O)[C@H](C(=O)O)[O]2)[O][C@H]([C@H](O)CO)[C@@H]1O (stereo partly drawn) [stibogluconate] + Oc1nc(-c2ccc(C(F)(F)F)cc2)nc2c1CSCC2 [XAV939] (first compound 2 µM, partner dose 2 µM)",62.7%,27.4%,70.8%,88%,88.7%,76.3%,40.5%,79.1%,25.5%,133%,75.4%,126%,223%,75.1%,68%,127%
"Nc1ccn([C@@H]2O[C@H](CO)[C@@H](O)C2(F)F)c(=O)n1 [gemcitabine] + c1cc(-c2cnn3cc(-c4ccc(OCCN5CCCCC5)cc4)cnc23)ccn1 [Dorsomorphin] (first compound 0.0004 µM, partner dose 0.4 µM)",68.1%,27.6%,119%,58.7%,51.2%,139%,58.4%,141%,165%,149%,91.9%,98.1%,132%,83.4%,41.9%,108%
"Cc1cc(Nc2cc(N3CCN(C)CC3)nc(/C=C/c3ccccc3)n2)n[nH]1 + COc1ccc2c(c1)CCC1C2CCC2(C)C(NCCCCCCN3C(=O)C=CC3=O)CCC12 [U73122] (first compound 0.04 µM, partner dose 0.4 µM)",224%,47.3%,36.8%,81.8%,140%,102%,91.3%,79.2%,58%,157%,125%,149%,46%,89.6%,93.1%,106%

# Single records, as listed above. Values in the order: cleaved PARP positive nuclei fraction (501Mel) | cleaved PARP positive nuclei fraction (A101D) | cleaved PARP positive nuclei fraction (A2058) | cleaved PARP positive nuclei fraction (C32) | cleaved PARP positive nuclei fraction (CBRC008) | cleaved PARP positive nuclei fraction (CBRC014) | cleaved PARP positive nuclei fraction (CBRC016) | cleaved PARP positive nuclei fraction (CBRC017) | cleaved PARP positive nuclei fraction (COLO792) | cleaved PARP positive nuclei fraction (COLO800) | cleaved PARP positive nuclei fraction (COLO829) | cleaved PARP positive nuclei fraction (G361) | cleaved PARP positive nuclei fraction (IPC-298) | cleaved PARP positive nuclei fraction (IST-MEL1) | cleaved PARP positive nuclei fraction (LB2518-MEL) | cleaved PARP positive nuclei fraction (LOXIMVI)
# Nc1ncn([C@H]2C[C@H](O)[C@@H](CO)O2)c(=O)n1 [decitabine] + Oc1nc(-c2ccc(C(F)(F)F)cc2)nc2c1CSCC2 [XAV939] (first compound 0.1 µM, partner dose 2 µM) reads 83.4% | 9.57% | 70.7% | 79.4% | 60.6% | 98% | 72% | 143% | 132% | 77.8% | 218% | 155% | 151% | 90.1% | 89.9% | 63.7%
# CC(C)C[C@H](NC(=O)[C@H](Cc1ccccc1)NC(=O)c1cnccn1)B(O)O [Bortezomib] + COc1cc(N2CCC(N3CCN(C)CC3)CC2)ccc1Nc1ncc(Cl)c(Nc2ccccc2S(=O)(=O)C(C)C)n1 [NVP-TAE684] (first compound 0.001 µM, partner dose 0.08 µM) reads 766% | 166% | 206% | 199% | 1050% | 364% | 190% | 185% | 227% | 138% | 110% | 273% | 77.5% | 698% | 147% | 66.5%
